Taken from: PubChem BioAssay AID504786 (Drosophila RNAi Screening Center, 2011)
In all, the deposit lists about 21,000 reagents; this is a random part of those that have a named target and a result. 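Primary screen; positive scores mean lost reporter signal, so the sign may be inverted from the usual convention.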 Not all columns of the deposit are shown.

- Test: 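Positive regulators of HIF-driven reporter output in Drosophila cells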 (primary screen)
- Cell system: Drosophila S2 cells with a stable HIF luciferase reporter
- Reagent: long dsRNA against Drosophila genes, about 0.2 µg dsRNA per well of a 384-well plate
- Time to read-out: three days of knock-down, then 20 h of DFO before reading
- Conditions: desferrioxamine (DFO) at 100 µM, an iron chelator that mimics hypoxia, for 20 h
- Read-out: 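Firefly luciferase driven by the mouse ldh-a hypoxia-response element, measured after 20 h of 100 µM DFO; z-scores per plate, higher means more signal lost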
- Direction: z-score: higher = stronger loss of HIF reporter signal

{"gene": "Sdb", "DRSC id": "DRSC06272", "z-score, replicate 1": -0.2}
{"gene": "Sdb", "DRSC id": "DRSC06273", "z-score, replicate 1": -0.1}
{"gene": "Sdb", "DRSC id": "DRSC07155", "z-score, replicate 1": -0.3}
{"gene": "Acp36DE", "DRSC id": "DRSC01860", "z-score, replicate 1": -0.2}
{"gene": "CG31710", "DRSC id": "DRSC01089", "z-score, replicate 1": 0.1}
{"gene": "CG14995", "DRSC id": "DRSC08452", "z-score, replicate 1": 3.1}
{"gene": "CG14013", "DRSC id": "DRSC02344", "z-score, replicate 1": -0.3}
{"gene": "CG13737", "DRSC id": "DRSC10064", "z-score, replicate 1": 0.1}
{"gene": "CG17010", "DRSC id": "DRSC02559", "z-score, replicate 1": -0.3}
{"gene": "CG5402", "DRSC id": "DRSC15792", "z-score, replicate 1": 0.1}
{"gene": "Pde9", "DRSC id": "DRSC19746", "z-score, replicate 1": -0.2}
{"gene": "Pde9", "DRSC id": "DRSC19874", "z-score, replicate 1": 0.1}
{"gene": "Pde9", "DRSC id": "DRSC19875", "z-score, replicate 1": -0.1}
{"gene": "Pde9", "DRSC id": "DRSC19876", "z-score, replicate 1": 0}
{"gene": "t-Grip128", "DRSC id": "DRSC07853", "z-score, replicate 1": -0.3}
{"gene": "LpR1", "DRSC id": "DRSC15665", "z-score, replicate 1": -0.4}
{"gene": "LpR1", "DRSC id": "DRSC15669", "z-score, replicate 1": -0.2}
{"gene": "LpR1", "DRSC id": "DRSC15670", "z-score, replicate 1": -0.4}

2 of these entries, reformatted.
gene,DRSC id,"z-score, replicate 1"
LpR1,DRSC15669,-0.2
LpR1,DRSC15670,-0.4
